Reference: PubChem BioAssay AID192 (DTP/NCI, 2004)
The list shows only some results of the screen, not a fair sample: it is rich in T/C values a quarter to a half above the control, in often repeated tests (any T/C) and in doses without a T/C. Further doses and runs are listed elsewhere. T/C gives the treated animals as a percentage of the vehicle group. Some doses have a count of surviving animals in place of a T/C: the source holds a T/C of zero for them, seemingly a mark for toxic or unscored doses. Some doses without a T/C left all or most animals alive at the check, yet need not have been tolerated: survival well below the control is almost never listed, so the zero probably covers shortened survival too. Counts of survivors are from the toxicity check (mostly the fifth day) where no day follows; animals may have died later. Schedule codes are those of the source, read here as Q, the interval in days (D) or hours (H), X, the number of doses. Some entries were tested several times; the values are given in rising order. Signs of the kind (2×) stand for listed records that agree. Where survival is the endpoint, the PubChem record calls one and a half times the control and up active, and a quarter to a half above the control has no call in these data; cut-offs in other NCI protocols can differ. Some T/C values are followed by the survivors on the day toxicity was checked, most often the fifth; where none is given, no animal had died by that day.

Tested on: BDF1 mice, B16 melanoma ip, median survival T/C
Test: NCI In Vivo Anticancer Drug Screen. Data for tumor model B16 Melanoma (intraperitoneal) in B6D2F1 (BDF1) mice
Conditions: T/C endpoint: median survival time, higher T/C = longer survival
In short: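 The ratio T/C compares compound-treated mice with vehicle-treated controls, using survival or tumor size as the endpoint in a transplantable tumor model.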

[1] = dose: 12.5 mg/kg/injection, schedule: Q01DX001 (ip), vehicle: Klucel (hydroxypropylcellulose) (HPC)
[2] = dose: 32.0 mg/kg/injection, schedule: Q01DX009 (ip), vehicle: Klucel (hydroxypropylcellulose) (HPC)
[3] = dose: 32.0 mg/kg/injection, schedule: Q01DX009 (ip), vehicle: saline
[4] = dose: 50.0 mg/kg/injection, schedule: Q01DX001 (ip), vehicle: Klucel (hydroxypropylcellulose) (HPC)
[5] = dose: 100.0 mg/kg/injection, schedule: Q01DX001 (ip), vehicle: Klucel (hydroxypropylcellulose) (HPC)

SMILES: O=NN(CCCl)C(=O)NC1CCCCC1
- T/C (dose: 1.0 mg/kg/injection, schedule: Q01DX009 (ip), vehicle: Klucel (hydroxypropylcellulose) (HPC)): 94, 95 (2×), 96, 99, 102 [9 of 10 alive], 107, 111, 112 % of control
- T/C (dose: 2.0 mg/kg/injection, schedule: Q01DX009 (ip), vehicle: Klucel (hydroxypropylcellulose) (HPC), evaluated on day 45): 103 % of control
- T/C (dose: 2.0 mg/kg/injection, schedule: Q01DX009 (ip), vehicle: Klucel (hydroxypropylcellulose) (HPC), evaluated on day 60): 92, 102, 104, 107, 108, 109, 110 (2×), 113, 120 % of control
- T/C (dose: 4.0 mg/kg/injection, schedule: Q01DX009 (ip), vehicle: Klucel (hydroxypropylcellulose) (HPC), evaluated on day 45): 140 % of control
- T/C (dose: 4.0 mg/kg/injection, schedule: Q01DX009 (ip), vehicle: Klucel (hydroxypropylcellulose) (HPC), evaluated on day 60): 104, 105 (2×), 107, 110, 111 (3×), 112, 114, 117 [5 of 6 alive], 119, 122, 126, 129, 130, 132 [5 of 6 alive], 133, 135, 140, 141, 144, 149, 156, 167 % of control
- T/C (dose: 4.0 mg/kg/injection, schedule: Q01DX009 (ip), vehicle: saline with Tween-80, evaluated on day 45): 95, 108, 118 % of control
- T/C (dose: 4.0 mg/kg/injection, schedule: Q01DX009 (ip), vehicle: saline with Tween-80, evaluated on day 60): 94, 96, 105 % of control
- T/C (dose: 4.0 mg/kg/injection, schedule: Q01DX009 (ip), vehicle: saline): 102, 102 [5 of 6 alive], 106 (2×), 115, 131 % of control
- T/C (dose: 8.0 mg/kg/injection, schedule: Q01DX001 (ip), vehicle: Klucel (hydroxypropylcellulose) (HPC)): 143 % of control
- T/C (dose: 8.0 mg/kg/injection, schedule: Q01DX009 (ip), vehicle: Klucel (hydroxypropylcellulose) (HPC), evaluated on day 45): 174 % of control
- T/C (dose: 8.0 mg/kg/injection, schedule: Q01DX009 (ip), vehicle: Klucel (hydroxypropylcellulose) (HPC), evaluated on day 60): 88, 100, 117, 119, 120 (2×), 125, 137 (2×), 139 (2×), 142 [9 of 10 alive], 150, 157, 170, 175, 182, 185, 190, 194, 202, 207 [9 of 10 alive], 209, 225, 259 % of control
- T/C (dose: 8.0 mg/kg/injection, schedule: Q01DX009 (ip), vehicle: saline with Tween-80, evaluated on day 45): 118, 127, 137 % of control
- T/C (dose: 8.0 mg/kg/injection, schedule: Q01DX009 (ip), vehicle: saline with Tween-80, evaluated on day 60): 105, 111, 117, 160 % of control
- T/C (dose: 8.0 mg/kg/injection, schedule: Q01DX009 (ip), vehicle: saline): 113, 123 (2×), 126, 145, 157 % of control
- T/C (dose: 12.0 mg/kg/injection, schedule: Q01DX001 (ip), vehicle: Klucel (hydroxypropylcellulose) (HPC)): 104, 111, 112, 126, 132, 157, 161, 191 % of control
- T/C [1]: 104, 105 [5 of 6 alive], 115, 117, 120, 127 % of control
- survivor count [1]: 5 of 6
- T/C (dose: 12.5 mg/kg/injection, schedule: Q01DX001 (ip), vehicle: saline with Tween-80, evaluated on day 45): 100, 105, 117, 120 % of control
- T/C (dose: 12.5 mg/kg/injection, schedule: Q01DX001 (ip), vehicle: saline with Tween-80, evaluated on day 60): 96, 108, 111 % of control
- T/C (dose: 12.5 mg/kg/injection, schedule: Q01DX001 (ip), vehicle: saline): 97, 100, 106, 119 % of control
- T/C (dose: 15.0 mg/kg/injection, schedule: Q01DX001 (ip), vehicle: other): 129 % of control
- T/C (dose: 16.0 mg/kg/injection, schedule: Q01DX009 (ip), vehicle: Klucel (hydroxypropylcellulose) (HPC), evaluated on day 45): 141 % of control
- T/C (dose: 16.0 mg/kg/injection, schedule: Q01DX009 (ip), vehicle: Klucel (hydroxypropylcellulose) (HPC), evaluated on day 60): 89, 90, 105, 108, 120, 152, 178, 180, 182, 188 (3×), 194, 195, 197, 200 (2×), 205, 213, 222, 250 [5 of 6 alive], 257, 290 % of control
- survivor count (dose: 16.0 mg/kg/injection, schedule: Q01DX009 (ip), vehicle: Klucel (hydroxypropylcellulose) (HPC)): 9 of 10 and 6 of 6
- T/C (dose: 16.0 mg/kg/injection, schedule: Q01DX009 (ip), vehicle: saline with Tween-80, evaluated on day 45): 162, 191, 218 % of control
- T/C (dose: 16.0 mg/kg/injection, schedule: Q01DX009 (ip), vehicle: saline with Tween-80, evaluated on day 60): 158, 171, 233, 307 % of control
- T/C (dose: 16.0 mg/kg/injection, schedule: Q01DX009 (ip), vehicle: saline): 91, 152, 185, 189, 200, 285 % of control
- T/C (dose: 25.0 mg/kg/injection, schedule: Q01DX001 (ip), vehicle: Klucel (hydroxypropylcellulose) (HPC)): 110, 112, 116, 117, 122, 128, 136, 150, 154, 155, 160, 173, 175, 214, 333 % of control
- T/C (dose: 25.0 mg/kg/injection, schedule: Q01DX001 (ip), vehicle: saline with Tween-80, evaluated on day 45): 112 (2×), 115, 119 % of control
- T/C (dose: 25.0 mg/kg/injection, schedule: Q01DX001 (ip), vehicle: saline with Tween-80, evaluated on day 60): 101, 108, 136 % of control
- T/C (dose: 25.0 mg/kg/injection, schedule: Q01DX001 (ip), vehicle: saline): 102, 103, 110, 115, 145 % of control
- T/C [2]: 92, 94 [4 of 6 alive], 107, 111, 114, 115, 126 [5 of 6 alive], 146, 188 % of control
- survivor count [2]: 5 of 6, 10 of 10 (3×), 6 of 6
- T/C (dose: 32.0 mg/kg/injection, schedule: Q01DX009 (ip), vehicle: saline with Tween-80, evaluated on day 45): 110 and 124 % of control
- T/C (dose: 32.0 mg/kg/injection, schedule: Q01DX009 (ip), vehicle: saline with Tween-80, evaluated on day 60): 128 % of control
- survivor count (dose: 32.0 mg/kg/injection, schedule: Q01DX009 (ip), vehicle: saline with Tween-80): 5 of 6 (2×) and 6 of 6
- T/C [3]: 135, 139, 142, 144, 147 % of control
- survivor count [3]: 6 of 6
- T/C [4]: 92 [5 of 6 alive], 100, 107, 110 [5 of 6 alive], 125, 141, 150, 172, 187, 188, 207, 214, 255, 333 % of control
- survivor count [4]: 6 of 6
- T/C (dose: 50.0 mg/kg/injection, schedule: Q01DX001 (ip), vehicle: saline with Tween-80, evaluated on day 45): 100 (2×), 122, 150 % of control
- T/C (dose: 50.0 mg/kg/injection, schedule: Q01DX001 (ip), vehicle: saline with Tween-80, evaluated on day 60): 100, 116, 207 % of control
- T/C (dose: 50.0 mg/kg/injection, schedule: Q01DX001 (ip), vehicle: saline): 112, 113, 121 (2×), 184 % of control
- T/C (dose: 60.0 mg/kg/injection, schedule: Q01DX001 (ip), vehicle: other): 134 % of control [9 of 10 alive on day 6]
- survivor count (dose: 64.0 mg/kg/injection, schedule: Q01DX009 (ip), vehicle: Klucel (hydroxypropylcellulose) (HPC)): 9 of 10
- survivor count (dose: 64.0 mg/kg/injection, schedule: Q01DX009 (ip), vehicle: saline with Tween-80): 10 of 10
- T/C [5]: 86, 88, 94, 95, 122 [5 of 6 alive], 135, 153, 155, 176 % of control
- survivor count [5]: 4 of 6, 5 of 6, 6 of 6
- T/C (dose: 100.0 mg/kg/injection, schedule: Q01DX001 (ip), vehicle: saline with Tween-80, evaluated on day 45): 95 and 140 % of control [5 of 6 alive]
- T/C (dose: 100.0 mg/kg/injection, schedule: Q01DX001 (ip), vehicle: saline with Tween-80, evaluated on day 60): 230 % of control
- survivor count (dose: 100.0 mg/kg/injection, schedule: Q01DX001 (ip), vehicle: saline with Tween-80): 5 of 6 and 6 of 6 (2×)
- T/C (dose: 100.0 mg/kg/injection, schedule: Q01DX001 (ip), vehicle: saline): 96, 124, 128, 134, 184 % of control
- survivor count (dose: 120.0 mg/kg/injection, schedule: Q01DX001 (ip), vehicle: other): 7 of 10 on day 6
- survivor count (dose: 128.0 mg/kg/injection, schedule: Q01DX009 (ip), vehicle: Klucel (hydroxypropylcellulose) (HPC)): 3 of 10

SMILES: CCCC(=O)Nc1ncnc2c1ncn2C1OC2COP(=O)(O)OC2C1OC(=O)CCC (stereo unspecified)
- survivor count (dose: 400.0 mg/kg/injection, schedule: Q01DX009 (ip), vehicle: saline): 7 of 7

SMILES: O=C1c2ccccc2C(=O)N1C[P+](c1ccccc1)(c1ccccc1)c1ccccc1
- survivor count (dose: 50.0 mg/kg/injection, schedule: Q01DX009 (ip), vehicle: water): 10 of 10
